Source: US20260226055A1, “PYRAZOLE DERIVATIVES AS PHD INHIBITORS” (Oxford University Innovation Limited, priority 2023, published 2026)
At least one compound was matched to its structure with a doubt left.

Columns and labels:
[1] = In vivo blood counts in C57BL/6 mice
[2] = test system: HIF1-α in HEK293T cells; test: Immunoblots of HEK293 T cells (HIF1-α protein levels); settings: HEK293 T cells, 0.5, 1, 5, 10, 20, 50 and 100 M, 18 hours
[3] = test system: off-target 2OG oxygenases (FIH, JMJD6, KDM4A, KDM5B, KDM6B, OGFOD1); settings: FIG. 4
[4] = twice daily IP, 68 at 15 or 30 mg/kg, Daprodustat 30 mg/kg, day 4 and 8 vs vehicle

Structure (SMILES): O=C(NCC1CCC(C(F)(F)F)CC1)c1cnc(-n2cccn2)cc1O (stereo not drawn) [Compound 68, 4-Hydroxy-6-(1H-pyrazol-1-yl)-N-((4-(trifluoromethyl)cyclohexyl)methyl)nicotinamide]
- levels of RBC, HCT and HGB compared to 2 at 30 mg/kg ([1]; 15 mg/kg of 68, twice daily IP): same levels
- haematocrit (HCT) [1, 4]: Statically significant increases
- haemoglobin (HGB) [1, 4]: Statically significant increases
- red blood cell count (RBC) [1, 4]: Statically significant increases
- cellular HIF-1α stabilisation (immunoblot) [2]: stabilise cellular HIF-1α
- IC50 for each of the off-target sites tested [3]: very high IC50
